# Library screening results

Source: ChEMBL document CHEMBL3988442, “University of Dundee, Small-Polar-MMV Screening Library” (2021).

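Viability assay of Plasmodium falciparum sporozoites; the read-out is not stated. The concentration is filed as 10 mM, unlikely as a test dose, so the dose is not known. Higher reads as lower viability (inferred: compounds with an IC50 in retests scored well above the rest). Strong results were mostly tested again. About 34,000 compounds were tested under these conditions; 0.84% (about 280) showed 50% or more at least once.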

Values are the deposited “Percent Effect”, in %. The record does not define 0% and 100%; most values in the screen are far below 50% and negative numbers occur (in some assays of this library far below -100). This is an unselected part of the compounds tested. Two or more numbers in one place are separate tests of the same structure; such repeats can differ widely.

With Cc1nsc(N2CCCN(CC(=O)N(C)C3CC3)CC2)n1 the screen gave 4.412%. For Cc1nc(NCC2CCOCC2)cc(C2CCN2S(C)(=O)=O)n1 (stereo not drawn) the result was -0.9064%. With Cc1nc2c(N(CCC(N)=O)CCc3ccccc3)ncnc2o1 the screen gave 3.333%. Result for COCC(=O)N1CCC2(CC1)COCCN2CCN(C)C.O=C(O)C(F)(F)F.O=C(O)C(F)(F)F was -20.97% & -11.8% & -24.39%. CC(C)CCNC(=O)c1sccc1N(C)S(=O)(=O)c1ccccc1 gave 5.524%. NC(=O)NCC1CCCCN1C(=O)c1cc(F)cc(F)c1 (stereo not drawn) read 6.526%.

For O=C(Cn1cc(C(=O)O)ccc1=O)NCc1ccc(F)c(Cl)c1 the result was 5.263%. Result for Cc1cccc(CN2CC3(CCN(Cc4ccco4)CC3)OCC2=O)n1.O=C(O)C(F)(F)F.O=C(O)C(F)(F)F was -9.003% & -7.632% & -8.582%. [H][C@@]12CNC[C@]1([H])[C@H]2CN1CCn2nc(CNC(=O)N(C)C)cc2C1 gave 2%. COC1CCN(C(=O)CC(C)(C)C)CC(=O)N(C)c2ccccc21 (stereo not drawn) gave -25.34%. COCCn1cnnc1CCNc1cc(C)nc2ccnn12 gave 3.333%. Result for CC(=O)N1CCCC1c1csc(Nc2cnccn2)n1 (stereo not drawn) was -4.24%.

Cc1cc(CN2CCOC(Cn3nc(C)cc3C)C2)on1 (stereo not drawn) read 2.612%. Result for O=C(NCCc1cccs1)NCC(O)c1cccc(F)c1 (stereo not drawn) was 3.793%. CCc1ccc(C(N)c2cccc(S(C)(=O)=O)c2)cc1 (stereo not drawn) gave -1.654%. CCCNC(=O)C1(CC2CC(c3ccccc3OC)=NO2)CCOCC1 (stereo not drawn) gave -0.4057%. With O=C(O)C(F)(F)F.O=c1ccc2c(n1CC1CC1)CCC(NCc1cccs1)C2 (stereo not drawn) the screen gave 4.557%. For O=C(O)C(F)(F)F.[H][C@]12CCC[C@@]1(COC)CN(C(=O)CN(C)C)C2 the result was -2.483%.

Cc1cc(Oc2ccccc2)nc(C2CCN(CCO)CC2)n1 gave -0.4433%. With Cl.NCC(=O)N1CCC(c2ccnc(Nc3cc(C(F)(F)F)ccn3)n2)C1 (stereo not drawn) the screen gave 14.42%. With Cc1nc(C)n(CC2CCCN(c3ncnc4c3CCC4)C2)n1 (stereo not drawn) the screen gave -0.48%. Result for CC(C)[C@@H]1CN(S(=O)(=O)Cc2ccccc2)C[C@H]1NS(=O)(=O)N(C)C was -16.76%. CC(Cn1cccn1)NC(=O)NCc1ccoc1 (stereo not drawn) read 8.333%. With CCCNC(=O)N1CCN(Cc2cc(C)no2)CC1 the screen gave 1.711%.

With Cc1ccccc1C(=O)Nc1cnn(CCN2CCOCC2)c1 the screen gave 2.681%. CCOc1cc(CNC(=O)c2cnn(CC)c2C(F)(F)F)ccn1 read -7.539%. With CN(Cc1cc[nH]n1)C(=O)c1ccc2c(c1)nc(N1CC[C@H](O)C1)n2C the screen gave -1.125%. CC(=O)Nc1cccc(CN2CCCC2C(=O)Nc2nccs2)c1 (stereo not drawn) gave -4.563%. Result for CCNc1cc2c(nn1)CCN(C(=O)C(C)c1c(C)noc1C)C2 (stereo not drawn) was -8.46%. Result for c1cnnc(N2CCCC(NCc3cccc4c3OCCO4)C2)c1 (stereo not drawn) was 0.5795%.

[H][C@@]12C[C@@H](OCc3ccccc3)C[C@]1([H])CN(C(=O)C1CCOCC1)C2 gave 5.566%. For Cc1nnc(NC(=O)CSCc2cc(=O)n3ccccc3n2)s1 the result was -2.954%. Result for Cc1ccc(N2CCCC(NCC3=Cc4ccccc4OC3)C2)nn1 (stereo not drawn) was 9.337%. With CN(Cc1nnc2n1CCC2)C(=O)c1ccc2c(c1)OCCO2 the screen gave 6.761%. CCSCCC(=O)Nc1ncn(CC(=O)NCc2ccccc2)n1 read -2.146%. Result for Cc1cc(C2CCCN(C(=O)c3c(C)nn4cccnc34)C2)n[nH]1 (stereo not drawn) was -18.63%.

CC1CN(CC(=O)NC(C2CC2)C2CC2)CCN1Cc1nccn1C (stereo not drawn) read 4.2%. Result for Cc1[nH]nc2ncc(C(=O)N3CCN(CC(C)C)CC3)cc12 was 8.231%. Cc1noc(-c2ccnc(Oc3cccc(CN4CCCC4)c3F)c2)n1 read -17.38%. CCS(=O)(=O)N1Cc2nccn2CC(Cn2cccn2)C1 (stereo not drawn) read 10.05%. Result for Cn1ccc(C(=O)N2CCCC(c3cc4cccnc4c(O)n3)C2)n1 (stereo not drawn) was 14.42%. CCOCC1CN(S(=O)(=O)C2CC2)Cc2cnn(C)c21 (stereo not drawn) read 9.091%.

For Cc1cnn(CC2CCCN2C(=O)c2csc(C(C)C)n2)c1 (stereo not drawn) the result was 4.456%. Result for COc1ccc(N2CCN(C(=O)C3CN(C)C(=O)N3)CC2(C)C)cc1 (stereo not drawn) was -11.05%. For CC1CN(Cc2ccccc2)CCCN1CCNS(C)(=O)=O (stereo not drawn) the result was 8.324%. Result for CC(Cn1cccn1)NCc1csc(-c2ccccc2)n1 (stereo not drawn) was -33.33% & -47.15%. Cc1ccccc1-c1cc(C(=O)NCCN2CCCS2(=O)=O)[nH]n1 gave 14.65%. Result for CCn1cnnc1C1CCN(C(=O)c2cc(OC)ccc2OC)CC1 was 5.986%.

Result for CCn1cc(CN2CCC(c3[nH]ncc3S(C)(=O)=O)C2)cn1 (stereo not drawn) was -8.201%. With COc1cccc(CN2CCN(c3noc(C(C)C)n3)CC2)c1F the screen gave -16.27% & -11.43%. For COc1ccccc1CC(=O)N1CC[C@@]2(CCCO2)[C@@H](OC)C1 the result was -17.02% & 5.654% & -17.67%. CNC(=O)c1cn[nH]c1C1CCCN1C(=O)c1ccccn1 (stereo not drawn) gave 0.8951%. Cc1ncc(CNC(=O)Nc2cc(C(F)(F)F)c[nH]c2=O)s1 read 17.02%.

For reference, 3 entries once more:

| SMILES | effect |
|---|---|
| `O=C(Cn1cc(C(=O)O)ccc1=O)NCc1ccc(F)c(Cl)c1` | 5.263% |
| `COCC(=O)N1CCC2(CC1)COCCN2CCN(C)C.O=C(O)C(F)(F)F.O=C(O)C(F)(F)F` | -20.97% & -11.8% & -24.39% |
| `[H][C@@]12CNC[C@]1([H])[C@H]2CN1CCn2nc(CNC(=O)N(C)C)cc2C1` | 2% |